A word on the pKd: it is the negative decadic logarithm of the Kd, by convention in mol/L.

Protein sequences, listed by entry. Tags and fused reporters are not part of them.
UniProt P31941, whole entry E72A: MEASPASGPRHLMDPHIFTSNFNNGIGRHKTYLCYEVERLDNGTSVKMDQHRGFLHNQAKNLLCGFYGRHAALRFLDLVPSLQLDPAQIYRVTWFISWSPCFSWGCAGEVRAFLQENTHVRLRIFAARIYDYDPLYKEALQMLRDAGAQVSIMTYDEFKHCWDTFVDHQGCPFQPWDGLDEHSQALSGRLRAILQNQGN

Binding result and Kd data for five sequences are collected here from PMC5951847.

pKd: −log10 of the molar value. Construct, isoform or probe ends are uncertain for at least one entry. For some assays here: Weaker means in comparison with the reference protein, sequence or condition of that experiment. For some assays here: At least one verdict was read from the data and is not stated in words by the source.

In data set [1] the target is A3A(E72A) (Homo sapiens) (UniProt P31941). Nature of the data set: competition with a labelled probe. The note with it: vs TAMRA-3A-TTCA-6A, 50 mM MES pH 6.0, 100 mM NaCl, 0.5 mM TCEP, room temperature overnight, 10 nM TAMRA-oligo, competition with 300 nM A3A(E72A), pH series: acetate 4.0-5.0, MES 5.5-6.5, recombinant protein, protein details: His6-SUMO removed by Ulp1 (untagged), label: unlabeled, single-stranded DNA.

Data set [2] shares this target. Nature of the data set: fluorescence anisotropy. To be noted: pH 6.0, 50 mM MES pH 6.0, 100 mM NaCl, 0.5 mM TCEP, room temperature overnight, 10 nM TAMRA-oligo, competition with 300 nM A3A(E72A), pH series: acetate 4.0-5.0, MES 5.5-6.5, recombinant protein, protein details: His6-SUMO removed by Ulp1 (untagged), label: 5' TAMRA, single-stranded DNA. In general terms: Polarisation of emitted light reports the rotation of a fluorescent probe.

[3] abbreviates: letters put together from the description.

On to AATTCAAAA [2A-TTCA-3A], for which the binding result in data set [1] (setting [3]) was “binds more weakly”. Turning to AAATTCAAA [3A-TTCA-2A], in data set [1] (setting [3]), the binding result is recorded as “binds more weakly”. On to AAAAAAAAAAAA [Poly A (12 A)], for which the pKd in data set [2] was less than 4.96. For AAATTCAAAAAAA [3A-TTCA-6A competitor], the binding result in data set [1] was “binds”. On to AAAAAUAAAAAA [Poly A-U (5A-U-6A)], for which the pKd in data set [2] (deoxyuridine at position 6, letters put together from the description) is less than 5.19.
